Some of the results follow.
How the values were obtained:
Experiment in all cases: log2 fold change, soluble protein after heating vs DMSO (PISA); higher = thermal stabilisation; K562 lysate, 10 uM; active = over 0.2 and 3.5 SD of the protein, either way, in both replicates (recomputed)
erlotinib = compound: C#Cc1cccc(Nc2ncnc3cc(OCCOC)c(OCCOC)cc23)c1 [erlotinib]
In short: (§1)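 K562 pellets were dounce-homogenised in PBS pH 7.4 containing 1 mM MgCl2, and the crude extract, at 1 mg/mL protein, was exposed to 10 μM compound for 30 min. Aliquots were heated for 3 min across 48°C-58°C, pooled, brought to 0.5% NP-40 at 4°C and spun at 21,000xg for 90 min, with the supernatant taken as soluble protein. TMTpro 16plex LC-MS/MS with equalised channel sums quantified that protein. Values are log-two fold changes in thermal stability relative to solvent controls, taken from duplicates.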

Sequences of proteins named here, by UniProt entry; tags and fusion partners are left off. A change or cut given only in a name is not applied to a line headed by its entry.
UniProt P23634: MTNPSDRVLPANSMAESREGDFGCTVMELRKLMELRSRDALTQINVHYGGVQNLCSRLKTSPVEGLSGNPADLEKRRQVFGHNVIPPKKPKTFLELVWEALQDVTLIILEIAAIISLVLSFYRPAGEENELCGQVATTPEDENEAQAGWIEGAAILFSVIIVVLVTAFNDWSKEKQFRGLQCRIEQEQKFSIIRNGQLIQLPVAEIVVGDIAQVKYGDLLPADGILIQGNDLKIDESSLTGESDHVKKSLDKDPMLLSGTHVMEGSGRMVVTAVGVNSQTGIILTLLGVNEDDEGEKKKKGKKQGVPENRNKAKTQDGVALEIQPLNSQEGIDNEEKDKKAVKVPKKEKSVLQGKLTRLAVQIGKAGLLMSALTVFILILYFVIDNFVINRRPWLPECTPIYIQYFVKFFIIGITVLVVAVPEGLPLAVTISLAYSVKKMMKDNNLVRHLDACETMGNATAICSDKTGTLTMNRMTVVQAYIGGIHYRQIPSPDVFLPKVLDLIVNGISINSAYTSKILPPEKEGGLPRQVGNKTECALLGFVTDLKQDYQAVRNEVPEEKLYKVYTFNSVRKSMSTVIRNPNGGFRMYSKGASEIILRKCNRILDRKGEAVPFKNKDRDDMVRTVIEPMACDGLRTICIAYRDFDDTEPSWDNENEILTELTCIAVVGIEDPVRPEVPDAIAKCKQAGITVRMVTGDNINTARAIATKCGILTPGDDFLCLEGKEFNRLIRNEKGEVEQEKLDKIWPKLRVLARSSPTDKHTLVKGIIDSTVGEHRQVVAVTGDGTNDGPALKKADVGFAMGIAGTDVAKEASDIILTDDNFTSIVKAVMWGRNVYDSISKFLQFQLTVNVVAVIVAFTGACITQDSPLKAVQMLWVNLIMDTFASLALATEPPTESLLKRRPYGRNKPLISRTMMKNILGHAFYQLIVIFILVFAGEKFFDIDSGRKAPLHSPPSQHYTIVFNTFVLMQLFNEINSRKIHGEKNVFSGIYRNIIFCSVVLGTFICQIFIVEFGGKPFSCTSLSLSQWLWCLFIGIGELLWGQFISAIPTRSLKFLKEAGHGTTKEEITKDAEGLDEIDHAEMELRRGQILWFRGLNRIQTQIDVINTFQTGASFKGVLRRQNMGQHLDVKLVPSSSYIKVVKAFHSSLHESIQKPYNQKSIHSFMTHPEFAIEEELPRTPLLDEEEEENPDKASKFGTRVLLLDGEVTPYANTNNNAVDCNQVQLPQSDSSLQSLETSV
UniProt Q8NHH9: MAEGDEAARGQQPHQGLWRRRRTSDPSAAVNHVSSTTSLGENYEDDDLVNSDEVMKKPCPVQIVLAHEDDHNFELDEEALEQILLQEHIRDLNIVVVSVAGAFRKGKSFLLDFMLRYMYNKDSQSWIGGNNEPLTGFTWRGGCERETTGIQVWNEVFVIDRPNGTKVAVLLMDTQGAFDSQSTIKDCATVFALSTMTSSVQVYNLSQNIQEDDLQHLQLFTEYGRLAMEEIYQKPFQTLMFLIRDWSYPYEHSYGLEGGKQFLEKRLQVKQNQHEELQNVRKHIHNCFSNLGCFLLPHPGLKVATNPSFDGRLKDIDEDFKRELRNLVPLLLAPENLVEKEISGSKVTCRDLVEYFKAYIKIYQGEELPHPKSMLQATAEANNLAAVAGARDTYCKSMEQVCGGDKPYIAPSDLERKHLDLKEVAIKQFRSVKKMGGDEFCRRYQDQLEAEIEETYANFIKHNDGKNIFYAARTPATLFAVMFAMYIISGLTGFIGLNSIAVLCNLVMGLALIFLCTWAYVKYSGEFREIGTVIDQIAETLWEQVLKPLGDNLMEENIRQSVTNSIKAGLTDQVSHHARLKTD
UniProt Q9HD20: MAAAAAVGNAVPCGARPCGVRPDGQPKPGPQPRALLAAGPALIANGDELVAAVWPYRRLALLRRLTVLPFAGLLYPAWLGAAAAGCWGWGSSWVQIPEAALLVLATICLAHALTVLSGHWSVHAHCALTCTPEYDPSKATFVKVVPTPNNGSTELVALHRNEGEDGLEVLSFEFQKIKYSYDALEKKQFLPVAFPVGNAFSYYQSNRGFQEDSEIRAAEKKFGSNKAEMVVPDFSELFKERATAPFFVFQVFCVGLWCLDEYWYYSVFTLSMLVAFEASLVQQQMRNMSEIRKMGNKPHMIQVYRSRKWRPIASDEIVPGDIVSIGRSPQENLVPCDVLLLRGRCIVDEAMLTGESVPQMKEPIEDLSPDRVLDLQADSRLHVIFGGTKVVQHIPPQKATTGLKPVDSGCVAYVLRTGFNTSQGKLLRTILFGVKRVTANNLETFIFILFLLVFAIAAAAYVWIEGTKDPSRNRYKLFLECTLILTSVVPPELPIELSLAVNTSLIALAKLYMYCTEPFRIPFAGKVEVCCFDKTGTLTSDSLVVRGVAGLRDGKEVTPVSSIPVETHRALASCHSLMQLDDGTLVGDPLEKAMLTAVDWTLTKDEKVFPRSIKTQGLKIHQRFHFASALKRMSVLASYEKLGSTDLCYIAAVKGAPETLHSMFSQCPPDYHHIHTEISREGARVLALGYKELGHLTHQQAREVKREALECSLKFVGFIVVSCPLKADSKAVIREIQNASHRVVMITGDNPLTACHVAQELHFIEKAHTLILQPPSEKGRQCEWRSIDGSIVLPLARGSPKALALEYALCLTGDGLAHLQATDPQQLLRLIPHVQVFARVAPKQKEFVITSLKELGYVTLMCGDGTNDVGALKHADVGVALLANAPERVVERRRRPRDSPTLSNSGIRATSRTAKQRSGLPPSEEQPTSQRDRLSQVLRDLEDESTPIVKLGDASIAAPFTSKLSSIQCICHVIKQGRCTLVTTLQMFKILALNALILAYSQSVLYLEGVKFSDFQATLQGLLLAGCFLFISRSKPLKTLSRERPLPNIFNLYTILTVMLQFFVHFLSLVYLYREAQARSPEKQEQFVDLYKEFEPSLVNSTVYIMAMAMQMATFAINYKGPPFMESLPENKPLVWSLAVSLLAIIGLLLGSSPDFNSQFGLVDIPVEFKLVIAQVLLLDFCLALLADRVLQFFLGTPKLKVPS
UniProt O15169, whole entry, looked up: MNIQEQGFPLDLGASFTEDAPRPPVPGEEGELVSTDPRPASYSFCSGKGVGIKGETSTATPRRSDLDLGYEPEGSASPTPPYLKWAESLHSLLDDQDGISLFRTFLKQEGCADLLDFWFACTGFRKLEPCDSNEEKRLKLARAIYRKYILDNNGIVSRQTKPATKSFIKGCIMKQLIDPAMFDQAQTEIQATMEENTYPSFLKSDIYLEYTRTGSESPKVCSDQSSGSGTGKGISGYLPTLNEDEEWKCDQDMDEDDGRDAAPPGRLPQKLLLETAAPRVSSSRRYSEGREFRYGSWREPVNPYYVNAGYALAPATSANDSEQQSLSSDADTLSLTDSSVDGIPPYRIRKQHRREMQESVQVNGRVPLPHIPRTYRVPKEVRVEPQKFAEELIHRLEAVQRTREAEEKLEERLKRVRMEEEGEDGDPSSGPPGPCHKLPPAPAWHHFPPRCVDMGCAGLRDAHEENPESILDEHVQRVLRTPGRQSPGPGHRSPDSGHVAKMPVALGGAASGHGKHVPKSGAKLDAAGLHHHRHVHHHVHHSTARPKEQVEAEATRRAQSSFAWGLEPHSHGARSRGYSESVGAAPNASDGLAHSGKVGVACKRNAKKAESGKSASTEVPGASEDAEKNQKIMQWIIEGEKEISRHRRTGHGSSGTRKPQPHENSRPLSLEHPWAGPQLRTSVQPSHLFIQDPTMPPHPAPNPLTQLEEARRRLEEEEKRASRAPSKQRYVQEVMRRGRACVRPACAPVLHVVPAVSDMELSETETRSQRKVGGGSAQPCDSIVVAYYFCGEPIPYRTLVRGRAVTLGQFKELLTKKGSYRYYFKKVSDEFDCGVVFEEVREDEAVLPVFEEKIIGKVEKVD
UniProt Q9H7T9: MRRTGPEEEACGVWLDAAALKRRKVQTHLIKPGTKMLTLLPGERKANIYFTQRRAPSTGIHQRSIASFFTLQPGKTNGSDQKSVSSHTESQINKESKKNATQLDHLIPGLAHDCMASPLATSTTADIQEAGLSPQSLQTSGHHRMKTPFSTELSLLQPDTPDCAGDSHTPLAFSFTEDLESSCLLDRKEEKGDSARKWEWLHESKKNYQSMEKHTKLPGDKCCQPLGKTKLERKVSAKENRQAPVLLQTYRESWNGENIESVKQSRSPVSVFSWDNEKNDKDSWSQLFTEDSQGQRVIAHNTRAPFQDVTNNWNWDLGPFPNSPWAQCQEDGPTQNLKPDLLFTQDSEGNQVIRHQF
UniProt Q13825: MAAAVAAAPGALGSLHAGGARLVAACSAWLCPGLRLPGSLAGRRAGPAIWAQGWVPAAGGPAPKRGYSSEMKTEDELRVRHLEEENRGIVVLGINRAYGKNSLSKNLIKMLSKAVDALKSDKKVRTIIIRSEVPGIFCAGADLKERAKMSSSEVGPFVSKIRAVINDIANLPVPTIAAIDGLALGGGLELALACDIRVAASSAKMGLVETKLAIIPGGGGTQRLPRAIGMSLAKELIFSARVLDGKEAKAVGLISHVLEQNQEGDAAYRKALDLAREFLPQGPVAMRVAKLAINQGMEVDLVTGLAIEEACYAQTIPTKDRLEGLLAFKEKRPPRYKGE
UniProt Q9H0Y0: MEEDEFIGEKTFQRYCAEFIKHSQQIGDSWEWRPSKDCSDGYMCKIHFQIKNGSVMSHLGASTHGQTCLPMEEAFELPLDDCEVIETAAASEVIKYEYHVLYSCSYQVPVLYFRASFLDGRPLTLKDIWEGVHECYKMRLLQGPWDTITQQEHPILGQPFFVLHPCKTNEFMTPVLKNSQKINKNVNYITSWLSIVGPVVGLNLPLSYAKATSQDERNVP
UniProt Q6UW56: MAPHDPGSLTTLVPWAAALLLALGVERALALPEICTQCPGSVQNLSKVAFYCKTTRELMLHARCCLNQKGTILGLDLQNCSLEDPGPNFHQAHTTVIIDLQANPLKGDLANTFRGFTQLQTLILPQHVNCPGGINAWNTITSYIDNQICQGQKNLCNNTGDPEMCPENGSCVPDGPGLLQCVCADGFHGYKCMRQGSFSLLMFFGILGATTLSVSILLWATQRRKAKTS
UniProt P35670: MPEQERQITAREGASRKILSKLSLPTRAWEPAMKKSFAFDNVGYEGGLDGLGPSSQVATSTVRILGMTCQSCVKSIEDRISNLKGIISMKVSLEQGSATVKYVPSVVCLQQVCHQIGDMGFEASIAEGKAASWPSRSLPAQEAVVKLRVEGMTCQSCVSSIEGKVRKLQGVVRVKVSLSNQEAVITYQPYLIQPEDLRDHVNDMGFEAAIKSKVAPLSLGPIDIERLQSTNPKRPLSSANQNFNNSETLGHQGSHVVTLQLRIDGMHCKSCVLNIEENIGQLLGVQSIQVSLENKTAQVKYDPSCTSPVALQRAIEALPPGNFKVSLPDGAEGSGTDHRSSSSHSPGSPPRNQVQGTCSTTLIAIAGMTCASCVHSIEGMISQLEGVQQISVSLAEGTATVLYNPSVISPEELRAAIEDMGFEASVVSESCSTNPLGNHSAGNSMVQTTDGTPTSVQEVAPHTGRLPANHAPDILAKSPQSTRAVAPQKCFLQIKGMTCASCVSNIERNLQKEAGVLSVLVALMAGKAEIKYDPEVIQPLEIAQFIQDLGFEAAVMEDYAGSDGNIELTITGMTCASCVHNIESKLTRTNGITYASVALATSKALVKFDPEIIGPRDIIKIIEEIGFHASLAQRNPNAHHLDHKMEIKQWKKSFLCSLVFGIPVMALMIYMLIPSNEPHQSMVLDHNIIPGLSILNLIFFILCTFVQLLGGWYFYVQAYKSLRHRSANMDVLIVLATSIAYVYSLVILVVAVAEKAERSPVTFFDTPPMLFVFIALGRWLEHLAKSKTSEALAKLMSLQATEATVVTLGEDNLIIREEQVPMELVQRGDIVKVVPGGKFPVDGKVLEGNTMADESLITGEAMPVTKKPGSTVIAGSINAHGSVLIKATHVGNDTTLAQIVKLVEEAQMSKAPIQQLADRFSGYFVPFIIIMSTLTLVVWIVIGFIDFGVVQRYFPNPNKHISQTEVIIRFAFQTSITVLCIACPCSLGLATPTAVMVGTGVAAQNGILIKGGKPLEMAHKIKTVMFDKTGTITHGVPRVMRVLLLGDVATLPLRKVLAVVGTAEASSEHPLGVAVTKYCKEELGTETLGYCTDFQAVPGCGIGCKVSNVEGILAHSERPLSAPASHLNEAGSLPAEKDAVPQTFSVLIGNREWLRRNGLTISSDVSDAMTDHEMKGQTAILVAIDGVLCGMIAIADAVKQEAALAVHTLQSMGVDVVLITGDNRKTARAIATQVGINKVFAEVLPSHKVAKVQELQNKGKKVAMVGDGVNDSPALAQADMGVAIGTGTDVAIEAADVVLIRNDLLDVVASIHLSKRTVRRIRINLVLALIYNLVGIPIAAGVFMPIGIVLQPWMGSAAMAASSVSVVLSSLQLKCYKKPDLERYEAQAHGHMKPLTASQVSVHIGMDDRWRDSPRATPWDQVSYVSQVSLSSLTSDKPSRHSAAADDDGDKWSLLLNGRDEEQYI

[1] = compound: C/C(=N\NC(=O)C1=CC(=CC=C1)S(=O)(=O)N2CCOCC2)/C3=C(C=CC(=C3)Cl)O
In short: as §1

[2] = compound: C1=CC(=CC=C1C2=NC3=C(N2)C=C(C=C3)C(=O)N)OC4=CC=C(C=C4)Cl
In short: as §1

[3] = compound: C1=CC2=C(C=CC(=C2)/C=C\3/C(=O)NC(=NCC4=CC=CS4)S3)N=C1
In short: as §1

[4] = compound: C1=CC2=NC=CN=C2C=C1/C=C/3\C(=O)NC(=O)S3
In short: as §1

[5] = compound: C1=CC=C(C=C1)C2=NC(=C(N2)C3=CC=NC=C3)C4=CC(=C(C=C4)Cl)O
In short: as §1

[6] = compound: C1=CC=C2C(=C1)C3=NNC4=CC=CC(=C43)C2=O
In short: as §1

[7] = compound: C1CCN(C1)C(=O)NC2=CC=CC(=C2)NC3=NC=C(C(=N3)NCCC4=CN=CN4)Br
In short: as §1

[8] = compound: C1CN(CCC1(CC2=CC=C(C=C2)Cl)N)C3=NC=NC4=C3C=CN4
In short: as §1

IRAK-1-4 Inhibitor I = compound: C1COCCN1CCN2C3=CC=CC=C3N=C2NC(=O)C4=CC(=CC=C4)[N+](=O)[O-] [IRAK-1-4 Inhibitor I]
In short: as §1

ibrutinib = compound: C=CC(=O)N1CCC[C@@H](n2nc(-c3ccc(Oc4ccccc4)cc3)c3c(N)ncnc32)C1 [ibrutinib]
In short: as §1

[9] = compound: CC(=O)c1cnc2ccc(-c3cc(Cl)c(O)c(Cl)c3)nc2c1N[C@H]1CC[C@H](CN(C)C)CC1
In short: as §1

ralimetinib = compound: CC(C)(C)Cn1c(N)nc2ccc(-c3[nH]c(C(C)(C)C)nc3-c3ccc(F)cc3)nc21 [ralimetinib]
In short: as §1

[10] = compound: CC(C)(O)CC(=O)NCCn1ccc2ncnc(Nc3ccc(Oc4cccc(C(F)(F)F)c4)c(Cl)c3)c21
In short: as §1

[11] = compound: CC(C)C1=C2N=C(C=C(N2N=C1)NCC3=CC=CC=C3)NCCCCCCN
In short: as §1

[12] = compound: CC1=C(C(CC(=O)N1)C2=CC=C(C=C2)C(F)(F)F)C(=O)NC3=C(C=C4C(=C3)C=NN4)F
In short: as §1

[13] = compound: CC1=C(C2=C(C=C1)C(=O)C3=CC=CC=C3N2CCCN)C
In short: as §1

[14] = compound: CC1=C(C=C(C=C1)NC(=O)C2=CC(=CC=C2)C(C)(C)C#N)NC3=CC4=C(C=C3)N=CN(C4=O)C
In short: as §1

[15] = compound: CC1=C(C=C(C=C1)NC(=O)C2=CC(=CC=C2)N(C)C)NC(=O)C3=CC=C(C=C3)O
In short: as §1

[16] = compound: CC1=CC=C(C=C1)SC2=C3C=C(SC3=CN=C2)C(=O)N
In short: as §1

Measured: log2 fold change

ATP2B4 (UniProt P23634)
inactive: erlotinib 0.021 | [1] 0.023 | [2] 0.012 | [3] 0.024 | [4] 0.019 | [5] -0.015 | [6] -0.018 | [7] 0.017 | [8] 0.045 | IRAK-1-4 Inhibitor I -0.028 | ibrutinib 0.06 | [9] -0.026 | ralimetinib -0.056 | [10] -0.029 | [11] -0.018 | [12] 0.033 | [13] -0.034 | [14] 0.089 | [15] 0.051 | [16] -0.003

ATL2 (UniProt Q8NHH9)
inactive: erlotinib -0.097 | [1] -0.007 | [2] 0.053 | [3] -0.028 | [4] 0.022 | [5] -0.051 | [6] 0.013 | [7] -0.018 | [8] -0.049 | IRAK-1-4 Inhibitor I 0.03 | ibrutinib 0.004 | [9] -0.021 | ralimetinib 0.009 | [10] -0.051 | [11] -0.116 | [12] -0.038 | [13] 0.01 | [14] -0.011 | [15] 0.045 | [16] -0.027

ATP13A1 (UniProt Q9HD20)
inactive: erlotinib 0.02 | [1] -0.09 | [2] -0.153 | [3] 0.024 | [4] -0.026 | [5] 0.02 | [6] -0.054 | [7] -0.04 | [8] 0.033 | IRAK-1-4 Inhibitor I 0.015 | ibrutinib -0.021 | [9] 0.048 | ralimetinib 0.029 | [10] -0.104 | [11] 0.036 | [12] 0.005 | [13] -0.089 | [14] -0.108 | [15] 0.062 | [16] 0.007

ATF3 (UniProt P18847)
inactive: erlotinib -0.158 | [1] 0.007 | [2] -0.263 | [3] -0.124 | [5] 0.031 | [6] 0.049 | [7] 0.051 | [8] 0.131 | IRAK-1-4 Inhibitor I -0.03 | ralimetinib 0.009 | [10] -0.06 | [11] 0.015 | [12] -0.048 | [13] -0.042 | [14] 0.105 | [15] 0.045

2 consecutive entries from above, quoted:
ATP13A1 (UniProt Q9HD20)
inactive: erlotinib 0.02 | [1] -0.09 | [2] -0.153 | [3] 0.024 | [4] -0.026 | [5] 0.02 | [6] -0.054 | [7] -0.04 | [8] 0.033 | IRAK-1-4 Inhibitor I 0.015 | ibrutinib -0.021 | [9] 0.048 | ralimetinib 0.029 | [10] -0.104 | [11] 0.036 | [12] 0.005 | [13] -0.089 | [14] -0.108 | [15] 0.062 | [16] 0.007

ATF3 (UniProt P18847)
inactive: erlotinib -0.158 | [1] 0.007 | [2] -0.263 | [3] -0.124 | [5] 0.031 | [6] 0.049 | [7] 0.051 | [8] 0.131 | IRAK-1-4 Inhibitor I -0.03 | ralimetinib 0.009 | [10] -0.06 | [11] 0.015 | [12] -0.048 | [13] -0.042 | [14] 0.105 | [15] 0.045

Going on with the list.

AXIN1 (UniProt O15169)
inactive: erlotinib 0.02 | [1] 0.029 | [2] -0.061 | [3] 0.042 | [4] -0.158 | [5] -0.012 | [6] 0.108 | [7] -0.021 | [8] -0.024 | IRAK-1-4 Inhibitor I 0.043 | ibrutinib 0.025 | [9] 0.003 | ralimetinib 0.019 | [10] 0.03 | [11] 0.117 | [12] 0.092 | [13] 0.145 | [14] 0.176 | [15] -0.095 | [16] 0.07

AUNIP isoform 2 (UniProt Q9H7T9)
inactive: erlotinib 0.062 | [1] -0.037 | [2] -0.017 | [3] 0.004 | [4] -0.088 | [5] 0.092 | [6] 0.024 | [7] -0.006 | [8] 0.028 | IRAK-1-4 Inhibitor I 0.006 | ibrutinib -0.058 | ralimetinib -0.021 | [10] 0.112 | [11] 0.007 | [13] 0.039 | [14] 0.103 | [15] -0.026

ATL3 (UniProt Q6DD88)
inactive: erlotinib -0.017 | [1] 0.035 | [2] 0.082 | [3] 0.03 | [4] -0.001 | [5] -0.052 | [6] -0.008 | [7] 0.006 | [8] 0.072 | IRAK-1-4 Inhibitor I -0.004 | ibrutinib -0.042 | [9] -0.012 | ralimetinib 0.027 | [10] -0.003 | [11] -0.003 | [12] 0.013 | [13] 0.007 | [14] -0.017 | [15] 0.037 | [16] -0.021

AUH (UniProt Q13825)
inactive: erlotinib 0.003 | [1] -0.031 | [2] 0.083 | [3] -0.042 | [4] 0.111 | [5] 0.027 | [6] -0.035 | [7] 0.026 | [8] -0.045 | IRAK-1-4 Inhibitor I -0.008 | ibrutinib 0.024 | [9] 0.103 | ralimetinib -0.161 | [10] -0.003 | [11] 0.011 | [13] -0.304 | [14] 0.015 | [15] -0.132 | [16] -0.058

ATG10 (UniProt Q9H0Y0)
inactive: erlotinib 0.062 | [1] 0.043 | [2] -0.011 | [3] -0.012 | [4] -0.01 | [5] 0.035 | [6] 0.086 | [7] -0.004 | [8] -0.004 | IRAK-1-4 Inhibitor I 0.022 | ibrutinib 0.057 | ralimetinib 0.001 | [10] -0.013 | [11] -0.062 | [12] -0.132 | [13] 0.063 | [14] 0.053 | [15] 0.012

ATRAID isoform 3 (UniProt Q6UW56)
inactive: erlotinib 0.041 | [1] -0.044 | [2] 0.117 | [3] -0.014 | [5] 0.059 | [6] -0.091 | [7] 0.069 | [8] 0.015 | IRAK-1-4 Inhibitor I -0.029 | [9] -0.042 | ralimetinib -0.009 | [10] -0.031 | [11] -0.026 | [12] -0.011 | [13] 0.06 | [14] 0.043 | [15] -0.002 | [16] -0.046

ATP7B (UniProt P35670)
inactive: erlotinib 0.015 | [1] -0.118 | [2] 0.021 | [3] -0.004 | [4] -0.009 | [6] -0.047 | [7] 0.052 | [8] -0.051 | ibrutinib 0.025 | [9] -0.031 | [11] 0.034 | [12] -0.015 | [13] -0.075 | [14] 0.001 | [16] -0.01

B3GNT5 (UniProt Q9BYG0)
inactive: erlotinib -0.02 | [1] 0.171 | [2] -0.159 | [3] 0.026 | [4] -0.084 | [5] 0.068 | [6] -0.159 | [7] 0.107 | [8] 0.073 | IRAK-1-4 Inhibitor I 0.183 | ibrutinib -0.034 | [9] 0.033 | ralimetinib 0.034 | [10] -0.044 | [11] 0.132 | [13] 0.001 | [15] 0.153 | [16] -0.161

Reference: the supplement of paper PMC10849652
